PubChem BioAssay AID1259268, Sanger Institute – 2017

Test: 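Kinase knock-downs that boost killing of colorectal cancer cells by targeted drugs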 (follow-up of hits)
Cells: human SNUC1 colorectal cancer cells
Knock-down reagent: single siRNA against human genes
Conditions: anchor drugs added a day after transfection: BYL719 1 µM, cetuximab 5 µg/ml or trametinib 10 nM, versus DMSO vehicle
Read-out: 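Mean viability per well relative to non-targeting pool 2 siRNA, plus a synergy score weighing the joint knock-down and drug effect against each effect alone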
Scale: synergy score with trametinib and synergy score with cetuximab and synergy score with BYL719: higher = stronger synergy of knock-down with drug
Active means: 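Active if the synergy score is above 0.10 for at least one of the three drugs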
Calls: active = synergy with at least one drug; inactive = no synergy with any drug
Here is an unselected part of 160 reagents tested. In the full data, 58 (36%) got an active call. 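Trametinib by itself roughly halved viability, making its arm harsher than the cetuximab and BYL719 arms.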 Unmarked entries are inactive. Reagents against one gene are numbered here. Further read-outs or replicates are left out here. No sequences are given here. Not stated in the record: the amount of reagent, the time to read-out.

| Target gene | reagent no. | synergy score with trametinib | synergy score with cetuximab | synergy score with BYL719 |
| --- | --- | --- | --- | --- |
| IKBKB (inhibitor of nuclear factor kappa B kinase subunit beta) | 1 | -0.0651 | -0.056 | -0.0636 |
| IKBKB (inhibitor of nuclear factor kappa B kinase subunit beta) | 2 | 0.0675 | -0.0663 | -0.23 |
| IKBKB (inhibitor of nuclear factor kappa B kinase subunit beta) | 3 | 0.0576 | -0.0333 | -0.146 |
| IKBKB (inhibitor of nuclear factor kappa B kinase subunit beta) | 4 | 0.014 | -0.0663 | -0.23 |
| GTF2H1 (general transcription factor IIH subunit 1) | 1 | -0.0556 | -0.0994 | -0.294 |
| GTF2H1 (general transcription factor IIH subunit 1) | 2 | -0.0476 | -0.0663 | -0.23 |
| GTF2H1 (general transcription factor IIH subunit 1) | 3 | -0.0209 | -0.0663 | -0.122 |
| GTF2H1 (general transcription factor IIH subunit 1) | 4 | 0.0572 | -0.00377 | -0.0864 |
| CAMK2N1 (calcium/calmodulin dependent protein kinase II inhibitor 1) | 1 | -0.0696 | -0.011 | -0.0819 |
| CAMK2N1 (calcium/calmodulin dependent protein kinase II inhibitor 1) | 2 | -0.0458 | -0.0663 | -0.108 |
| CAMK2N1 (calcium/calmodulin dependent protein kinase II inhibitor 1) | 3 | 0.0554 | 0.0601 | -0.165 |
| CAMK2N1 (calcium/calmodulin dependent protein kinase II inhibitor 1) | 4 | -0.148 | 0.0446 | -0.196 |
| MAPKAPK2 (MAPK activated protein kinase 2) | 1 | 0.0811 | 0.0199 | -0.204 |
| MAPKAPK2 (MAPK activated protein kinase 2) | 2 | 0.211 (active) | 0.0556 | -0.000585 |
| MAPKAPK2 (MAPK activated protein kinase 2) | 3 | 0.0106 | -0.103 | -0.19 |
| MAPKAPK2 (MAPK activated protein kinase 2) | 4 | -0.0376 | 0.098 | -0.136 |
| MPP3 (MAGUK p55 scaffold protein 3) | 1 | 0.0368 | -0.0765 | -0.198 |
| MPP3 (MAGUK p55 scaffold protein 3) | 2 | 0.114 (active) | -0.0663 | -0.204 |
| MPP3 (MAGUK p55 scaffold protein 3) | 3 | 0.239 (active) | -0.0729 | 0.00789 |
| MPP3 (MAGUK p55 scaffold protein 3) | 4 | 0.203 (active) | -0.262 | -0.193 |
| HUNK (hormonally up-regulated Neu-associated kinase) | 1 | 0.0931 | -0.0267 | -0.123 |
| HUNK (hormonally up-regulated Neu-associated kinase) | 2 | 0.207 (active) | -0.144 | 0.0231 |
| HUNK (hormonally up-regulated Neu-associated kinase) | 3 | 0.0415 | -0.0623 | -0.0703 |
| HUNK (hormonally up-regulated Neu-associated kinase) | 4 | 0.135 (active) | 0.024 | -0.167 |
| PAK1 (p21 (RAC1) activated kinase 1) | 1 | 0.13 (active) | -0.0663 | -0.192 |
| PAK1 (p21 (RAC1) activated kinase 1) | 2 | -0.1 | -0.0788 | -0.239 |
| PAK1 (p21 (RAC1) activated kinase 1) | 3 | 0.059 (active) | 0.148 | -0.216 |
| PAK1 (p21 (RAC1) activated kinase 1) | 4 | 0.088 | -0.0663 | 0.00804 |
| IRAK3 (interleukin 1 receptor associated kinase 3) | 1 | -0.0756 | -0.0359 | -0.249 |
| IRAK3 (interleukin 1 receptor associated kinase 3) | 2 | 0.0268 | -0.147 | -0.304 |
| IRAK3 (interleukin 1 receptor associated kinase 3) | 3 | -0.0247 | 0.0175 | -0.0948 |
| IRAK3 (interleukin 1 receptor associated kinase 3) | 4 | -0.109 | -0.105 | -0.262 |
| PIM1 (Pim-1 proto-oncogene, serine/threonine kinase) | 1 | 0.155 (active) | 0.0667 | 0.0496 |
| PIM1 (Pim-1 proto-oncogene, serine/threonine kinase) | 2 | 0.042 | -0.0663 | -0.194 |
| PIM1 (Pim-1 proto-oncogene, serine/threonine kinase) | 3 | 0.118 (active) | -0.072 | -0.058 |
| PIM1 (Pim-1 proto-oncogene, serine/threonine kinase) | 4 | 0.0909 | 0.0156 | -0.283 |
| PIK3CA | 1 | 0.0799 | 0.0811 | 0.0682 |
| PIK3CA | 2 | 0.0568 | 0.0244 | -0.04 |
| PIK3CA | 3 | 0.0848 | -0.0893 | -0.178 |
| PIK3CA | 4 | 0.0982 | 0.0822 | -0.047 |
| IRAK1 (interleukin 1 receptor associated kinase 1) | 1 | 0.151 (active) | 0.0653 | 0.169 |
| IRAK1 (interleukin 1 receptor associated kinase 1) | 2 | 0.0205 | -0.0554 | -0.0424 |
| IRAK1 (interleukin 1 receptor associated kinase 1) | 3 | 0.129 (active) | -0.0627 | -0.127 |
| IRAK1 (interleukin 1 receptor associated kinase 1) | 4 | -0.0197 | -0.02 | -0.0761 |
| HSPB8 (heat shock protein family B (small) member 8) | 1 | 0.247 (active) | -0.0663 | 0.0224 |
| HSPB8 (heat shock protein family B (small) member 8) | 2 | 0.00383 | 0.068 | -0.23 |
| HSPB8 (heat shock protein family B (small) member 8) | 3 | 0.0368 | 0.052 | -0.269 |
| HSPB8 (heat shock protein family B (small) member 8) | 4 | 0.0936 | 0.0757 | -0.216 |
| SYNCRIP (synaptotagmin binding cytoplasmic RNA interacting protein) | 1 | 0.14 (active) | 0.107 | -0.0683 |
| SYNCRIP (synaptotagmin binding cytoplasmic RNA interacting protein) | 2 | -0.00328 | 0.037 | -0.23 |
| SYNCRIP (synaptotagmin binding cytoplasmic RNA interacting protein) | 3 | 0.064 (active) | 0.201 | 0.0211 |
| SYNCRIP (synaptotagmin binding cytoplasmic RNA interacting protein) | 4 | 0.152 (active) | 0.144 | -0.196 |

Just “synergy score with BYL719” (7 entries from above):
MPP3 (MAGUK p55 scaffold protein 3) #3 = 0.00789 (active)
MPP3 (MAGUK p55 scaffold protein 3) #4 = -0.193 (active)
HUNK (hormonally up-regulated Neu-associated kinase) #1 = -0.123
HUNK (hormonally up-regulated Neu-associated kinase) #2 = 0.0231 (active)
HUNK (hormonally up-regulated Neu-associated kinase) #3 = -0.0703
HUNK (hormonally up-regulated Neu-associated kinase) #4 = -0.167 (active)
PAK1 (p21 (RAC1) activated kinase 1) #1 = -0.192 (active)
